{"source": "patent US20190203240A1", "about": "“METHODS FOR THE PRODUCTION OF RHAMNOSYLATED FLAVONOIDS” (Universitaet Hamburg, priority 2016, published 2019)", "system": "HaCaT cells", "test": "Glucose uptake (2-NBDG) in HaCaT keratinocytes", "format": "cell-based", "settings": "80 μM, +2NBDG 50 μM, 24 h, positive control", "method": "HaCaT cells (5×10^4) were seeded in 96-well black plates and incubated for 24 h. Then, medium was removed and the cells cultivated in OptiMEM, labeled with 50 μM 2-NBDG (2-[N-(7-nitrobenz-2-oxa-1,3-diazol-4-yl) amino]-2-deoxy-D-glucose and treated with the test substances or the positive control, Rosiglitazone, for 24 h. Medium was removed and the wells were carefully washed with PBS and incubated in PBS (100 μl/well). Finally the fluorescence was measured using the Incucyte FLR software, the data were analyzed by the total green object integrated intensity (GCU×μm2×Well) of the imaging system IncuCyte HD (Essen BioScience). The fluorescence of Rosiglitazone is taken as 100% of glucose uptake, and the glucose uptake was calculated as (% Glucose uptake)=100(T−B)/(R−B), where T (treated) is the fluorescence of test substance-treated cells, B (Basal) is the fluorescence of 2-NBDG cells and […] is the fluorescence of cells treated with Rosiglitazone.", "note": "“And” between values parts separate entries of the source, which are not always exact repeats. Identical values can stand only once. For at least one compound, name, drawing or mass did not settle the structure.", "data": [{"smiles": "CN(CCOc1ccc(CC2SC(=O)NC2=O)cc1)c1ccccn1", "note": "(centres unmarked) [Rosiglitazone]", "values": [{"measurement": "% Glucose uptake (Rosiglitazone = 100%)", "value": 100.0, "unit": "%"}, {"measurement": "Mean (fluorescence)", "value": "875103 and 1315962"}, {"measurement": "Measure 1 (fluorescence)", "value": "776381 and 923011"}, {"measurement": "Measure 3 (fluorescence)", "value": "1141924 and 1584421"}, {"measurement": "RFU specific", "value": "868789 RFU and 1282877 RFU"}]}]}
